Experimental data reported in the supplement of paper PMC9254222.
In all, about 1,100 compounds were measured (“Renilla luciferase signal (cell health) relative to plate median”: median about 0.97, highest 2% from about 1.6 on). The entries are a selection whose mix differs from that of the whole data set.

System: HEK293T (UBE3A T485A transfected, BAR Wnt reporter)
Test: Renilla luciferase signal (cell health) relative to plate median (fold (linear ratio)); higher = higher Renilla signal
Details: 24 h
Procedure, shortened: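 Chemicals at 0.01–100 uM were left on transfected HEK293T cells for 24 h, after a four-hour wait following transfection. The cells held a BAR firefly luciferase Wnt reporter, TK-Renilla and an expression plasmid. Wnt activity, as the firefly/Renilla ratio from a Dual-Glo luciferase readout, and cell health, as raw Renilla, were median-centred within each plate. Results average four biological replicates.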

| Compound | Renilla luciferase signal (concentration: 0.1 uM) | Renilla luciferase signal (concentration: 1 uM) | Renilla luciferase signal (concentration: 10 uM) | Renilla luciferase signal (concentration: 100 uM) | Renilla luciferase signal (concentration: 0.01 uM) |
| --- | --- | --- | --- | --- | --- |
| CCCCCCC(=O)O [Heptanoic acid] | 1.16 | 1.17 | 1.22 | 1.52 | – |
| CCCCCCCCOc1ccc(C(=O)c2ccccc2)c(O)c1 [Octabenzone] | 1.14 | 1.04 | 1.05 | 1.13 | – |
| CC(=O)NC1(c2cccc(F)c2)CCN(CC[C@@]2(c3ccc(Cl)c(Cl)c3)CN(c3ccccc3)C(=O)CO2)CC1.O=C(O)CCC(=O)O | 1.07 | 0.952 | 0.509 | 0.0198 | – |
| Cl.Clc1cc(Cl)c2c(c1)N=C1CCCCCN1C2 | 1.18 | 1.11 | 1.25 | 0.238 | – |
| CCCCCCCCCCCCN1CCCC1=O [1-Dodecyl-2-pyrrolidinone] | 0.846 | 0.856 | 0.929 | 0.883 | – |
| Cc1ccc2ncccc2c1 [6-Methylquinoline] | 0.59 | 0.634 | 0.624 | 0.879 | – |
| Cc1oc(-c2ccccc2)nc1CCOc1ccc(C[C@H](Nc2ccccc2C(=O)c2ccccc2)C(=O)O)cc1 [Farglitazar] | 0.762 | 0.899 | 0.957 | 1.58 | – |
| O=c1n(CC2CO2)c(=O)n(CC2CO2)c(=O)n1CC1CO1 (stereo not drawn) [Triglycidyl isocyanurate] | 1.41 | 1.3 | 0.309 | 0.0183 | – |
| Clc1ccccc1C(c1ccccc1)(c1ccccc1)n1ccnc1 [Clotrimazole] | 0.826 | 1.07 | 1.14 | 1.15 | – |
| CCN(Cc1cccnc1)C(=O)c1cccc(Cl)c1[C@]1(C)C(=O)N(Cc2ccc(OC)cc2OC)c2ccc(Cl)cc21.Cl | 1.07 | 0.917 | 0.473 | 0.042 | – |
| CCOC(=O)C(C)Oc1ccc(Oc2nc3ccc(Cl)cc3o2)cc1 (stereo not drawn) [Fenoxaprop-ethyl] | 0.851 | 1.02 | 1.13 | 1.78 | 0.9 |
| CN(C)[C@@H]1C(O)=C(C(N)=O)C(=O)[C@@]2(O)C(O)=C3C(=O)c4c(O)cccc4[C@@](C)(O)[C@H]3C[C@@H]12 [Tetracycline] | 0.672 | 0.805 | 0.694 | 1.7 | – |
| C#CC(O)C(CC)CCCC (stereo not drawn) [4-Ethyloct-1-yn-3-ol] | 0.974 | 0.88 | 1.01 | 1 | – |
| Cc1[nH]cnc1C[C@H]1CCc2c(C)c3ccccc3n2C1=O.Cl [Fabesetron hydrochloride] | 0.837 | 0.832 | 0.769 | 0.043 | – |
| O=[N+]([O-])C(CO)(CO)CO [2-(Hydroxymethyl)-2-nitro-1,3-propanediol] | 0.94 | 0.943 | 1.08 | 1.15 | – |
| CCCCC(CC)CN1C(=O)C2C3C=CC(C3)C2C1=O (stereo not drawn) | 1.01 | 1.02 | 0.814 | 0.469 | 0.727 |
| OC1CCCCC1 [Cyclohexanol] | 1.14 | 1.08 | 1.12 | 1.46 | – |
| CCCN(CCC)C(=O)SCC | 0.898 | 1.09 | 0.918 | 2.92 | 0.911 |
| C[C@](N)(Cc1ccc(O)c(O)c1)C(=O)O.C[C@](N)(Cc1ccc(O)c(O)c1)C(=O)O.O.O.O [Methyldopa sesquihydrate] | 0.955 | 0.989 | 0.993 | 1.29 | – |
| CCCCN(CCCC)CCCC [Tributylamine] | 1.11 | 1.01 | 1.1 | 1.34 | – |

| Compound | Renilla luciferase signal (concentration: 0.1 uM) | Renilla luciferase signal (concentration: 1 uM) | Renilla luciferase signal (concentration: 10 uM) | Renilla luciferase signal (concentration: 100 uM) | Renilla luciferase signal (concentration: 0.01 uM) |
| --- | --- | --- | --- | --- | --- |
| CCN(CC)CCOc1ccc(C(=C(Cl)c2ccccc2)c2ccccc2)cc1.O=C(O)CC(O)(CC(=O)O)C(=O)O [Clomiphene citrate (1:1)] | 0.837 | 0.85 | 0.818 | 1.02 | – |
| CC(=O)O.COCCOc1cc2cc(C(=O)NC3CCN(C(C)C)CC3)n(CC(=O)Nc3ccc(Cl)cn3)c2cn1 | 1.26 | 1.05 | 1.06 | 0.0998 | – |
| CC(=O)c1ccccc1 [Acetophenone] | 0.867 | 0.964 | 0.94 | 1.11 | – |
| NC(=O)N1C(=O)C(C(=O)c2cc(Cl)cs2)c2cc(F)c(Cl)cc21 (stereo not drawn) | 1.12 | 1.19 | 1.14 | 1.41 | – |
| Cc1cccc(Nc2cc(Cl)nc(SCC(=O)O)n2)c1C [Pirinixic acid] | 0.799 | 0.871 | 0.861 | 1.71 | – |
| O=C(O)c1ccc([N+](=O)[O-])cc1 [4-Nitrobenzoic acid] | 1.01 | 0.971 | 1.08 | 1.33 | – |
| CNC(CC(=O)O)C(=O)O (stereo not drawn) | 1.14 | 0.949 | 1.02 | 1.9 | 1.02 |
| CC(C)(C)c1csc(-c2cc3cc(OCc4ccccc4CC(=O)O)ccc3o2)n1 | 0.885 | 0.877 | 0.595 | 0.0363 | – |
| OCCOCCOCCO [Triethylene glycol] | 1.08 | 1.04 | 1.07 | 1.09 | – |
| NC(N)=O | 0.822 | 0.881 | 0.967 | 1.1 | – |
| O=c1[nH]sc2ccccc12 [1,2-Benzisothiazolin-3-one] | 1.17 | 0.985 | 0.439 | 0.0372 | – |
| c1ccc(C(O[C@@H]2CCCN(CCc3ccc4c(c3)OCO4)C2)c2ccccc2)cc1 [Zamifenacin] | 1.17 | 1.18 | 1.14 | 1.39 | – |
| CC(C)C(=O)OCC(C)(C)C(OC(=O)C(C)C)C(C)C (stereo not drawn) [2,2,4-Trimethyl-1,3-pentanediol diisobutyrate] | 0.923 | 0.897 | 0.927 | 1.06 | – |
| CC(C)CC(C)(O)C#CC(C)(O)CC(C)C (stereo not drawn) [2,4,7,9-Tetramethyl-5-decyne-4,7-diol] | 0.987 | 0.919 | 0.966 | 0.295 | – |
| CN(C)[C@@H]1C(O)=C(C(N)=O)C(=O)[C@@]2(O)C(O)=C3C(=O)c4c(O)cccc4[C@@](C)(O)[C@H]3[C@H](O)[C@@H]12.Cl [Oxytetracycline hydrochloride] | – | – | 2.28 | – | – |
| CC(C)OC(=O)C(C)(C)Oc1ccc(C(=O)c2ccc(Cl)cc2)cc1 [Fenofibrate] | 0.681 | 0.807 | 0.783 | 0.955 | – |
| COc1ccc2sc(C(=O)Nc3nnn[n-]3)c(OC(C)C)c2c1.[Na+] | 0.921 | 0.724 | 0.388 | 0.0286 | – |
| OCC(CO)(CBr)CBr [2,2-Bis(bromomethyl)-1,3-propanediol] | 0.999 | 0.961 | 1.01 | 1.07 | – |
| OC[C@H]1O[C@@](CO)(O[C@H]2O[C@H](CO)[C@@H](O)[C@H](O)[C@H]2O)[C@@H](O)[C@@H]1O [Sucrose] | 1.07 | 1.06 | 1.06 | 1.19 | – |
| COC(=O)c1ccc(O)cc1 [Methylparaben] | 0.9 | 0.928 | 1 | 1.22 | – |

Reprinted at random: three compounds from above

| Compound | Renilla luciferase signal (concentration: 0.1 uM) | Renilla luciferase signal (concentration: 1 uM) | Renilla luciferase signal (concentration: 10 uM) | Renilla luciferase signal (concentration: 100 uM) | Renilla luciferase signal (concentration: 0.01 uM) |
| --- | --- | --- | --- | --- | --- |
| CCCCCCC(=O)O [Heptanoic acid] | 1.16 | 1.17 | 1.22 | 1.52 | – |
| O=c1n(CC2CO2)c(=O)n(CC2CO2)c(=O)n1CC1CO1 (stereo not drawn) [Triglycidyl isocyanurate] | 1.41 | 1.3 | 0.309 | 0.0183 | – |
| OCCOCCOCCO [Triethylene glycol] | 1.08 | 1.04 | 1.07 | 1.09 | – |

More compounds follow.

| Compound | Renilla luciferase signal (concentration: 0.1 uM) | Renilla luciferase signal (concentration: 1 uM) | Renilla luciferase signal (concentration: 10 uM) | Renilla luciferase signal (concentration: 100 uM) | Renilla luciferase signal (concentration: 0.01 uM) |
| --- | --- | --- | --- | --- | --- |
| CCN(Cc1cccc(S(=O)(=O)[O-])c1)c1ccc(C(=C2C=CC(=[N+](CC)Cc3cccc(S(=O)(=O)[O-])c3)C=C2)c2ccccc2S(=O)(=O)[O-])cc1.[Na+].[Na+] | 1.01 | 1.02 | 0.97 | 0.914 | – |
| CCCCCCCC/C=C\CCCCCCCC(=O)OC[C@@H](O)[C@H]1OC[C@H](O)[C@H]1O [Sorbitan, mono-(9Z)-9-octadecenoate] | 1 | 0.88 | 0.863 | 0.85 | – |
| CCCCC(CC)COC(=O)CCCCCCCCC(=O)OCC(CC)CCCC (stereo not drawn) [Bis(2-ethylhexyl) decanedioate] | 0.914 | 0.879 | 0.929 | 1.19 | – |
| COCCOCCOC [Bis(2-methoxyethyl) ether] | 1.08 | 1.3 | 1.34 | 1.31 | – |
| NC(=O)c1nc(-c2cccc(-c3cc(F)ccc3OCC(F)(F)C(F)(F)F)c2)n[n-]1.O.[K+] | 0.946 | 0.78 | 0.498 | 0.0369 | – |
| CN1C(=O)CC[C@H]1c1cccnc1 [Cotinine] | 0.96 | 1.03 | 1.1 | 0.923 | – |
| O=Cc1ccccc1C=O [1,2-Benzenedicarboxaldehyde] | 0.99 | 0.942 | 1 | 1.03 | – |
| CC(C)(O)c1coc(S(=O)(=O)NC(=O)Nc2c3c(cc4c2CCC4)CCC3)c1 | 0.993 | 1.01 | 1.05 | 0.789 | – |
| COC(=O)CCCCC(=O)OC [Dimethyl adipate] | 0.854 | 0.917 | 0.874 | 1.11 | – |
| CCCCCCCCCCCCO [1-Dodecanol] | 0.721 | 0.824 | 0.728 | 0.97 | – |
| N[C@@H](Cc1cc(I)c(Oc2ccc(O)c(I)c2)c(I)c1)C(=O)O [3,5,3'-Triiodothyronine] | 0.904 | 1.24 | 2.47 | 2.22 | – |
| CC(COCC(C)OC(=O)c1ccccc1)OC(=O)c1ccccc1 (stereo not drawn) [Di(propylene glycol) dibenzoate] | 1 | 0.981 | 1.08 | 1.23 | – |
| OCC(CO)n1cnc(-c2ccc(F)cc2)c1-c1ccnc(Oc2ccccc2)n1 | 0.68 | 0.813 | 0.859 | 0.79 | – |
| O=c1c(-c2ccc(O)cc2)coc2cc(O)cc(O)c12 [Genistein] | 0.604 | 0.77 | 0.58 | 1.01 | 0.617 |
| COc1cccc(-c2ccc(/C=C\CN3CCCCCC3)cc2Cl)c1.Cl | 1.01 | 1.16 | 1.14 | 2.06 | – |
| S=C([S-])NCCNC(=S)[S-].S=C([S-])NCCNC(=S)[S-].[Mn+2].[Zn+2] [Mancozeb] | 1.15 | 1.12 | 1.19 | 0.0262 | 1.14 |
| CCc1c(C(=O)NN2CCCCC2)nn(-c2ccc(Cl)cc2Cl)c1-c1ccc(Br)cc1 [Surinabant] | 1.06 | 1.07 | 0.127 | 0.363 | – |
| Cn1cnc2c1c(=O)[nH]c(=O)n2C [Theobromine] | 0.97 | 0.856 | 1.15 | 1.22 | – |
| CC(=O)CC(C)(C)O [Diacetone alcohol] | 1.08 | 1.15 | 1.22 | 1.45 | – |
| CC/C(=C\C(=N/O)C(N)=O)C(C)[N+](=O)[O-] (stereo not drawn) | 1.17 | 1.15 | 1.15 | 0.968 | – |
